# Measured values as given in PubChem BioAssay AID2685 (National Center for Advancing Translational Sciences (NCATS), 2010).
# The other results are listed elsewhere or left out. Shown are side measurements of this screen, not its main read-out; they come without a call. Compounds called inactive in the main read-out are mostly missing here. Potencies come from curve fits of mixed quality, noted in brackets.
# Assay: qHTS Assay for Lipid Storage Modulators in Drosophila S3 Cells;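 as to cell number change: cells counted by Cell Tracker Red CMTPX staining in the red channel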
# Conditions: BODIPY lipid droplet fluorescence, 18-24 h; for cell number change: measured here: cell count max response, cells fed with added oleic acid
# Summary of the method: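 Drosophila S3 cells got compounds at several concentrations plus oleic acid (400 uM solution). Laser-scanning cytometry with 488 nm excitation read lipid droplets at 500-530 nm and cells at 575-640 nm. Percent activity was relative to 20 uM Triacsin C.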
# [1] = measured here: lipid fluorescence (Fed channel) AC50, cells fed with added oleic acid
# [2] = measured here: cell number channel AC50, cells fed with added oleic acid
Structure (SMILES),cell number change [%],AC50 [1],AC50 [2]
Cc1ccc(-n2nnnc2CNC(=O)C2CC(=O)N(c3ccc(F)cc3)C2)cc1C (stereo unspecified),34.4,–,–
COc1cc(C(=O)OCC(=O)NCc2ccco2)cc(OC)c1OC,2.78,"0.116 µM [rising, full curve, poor fit]",–
Cc1cc(CSc2ccccc2)ccc1NC(=O)COc1ccccc1,11,–,–
CCOc1ccc2oc(C(=O)OCC(=O)NC3CCCC3)c(C)c2c1,-62.9,"20.6 µM [falling, partial curve]","32.6 µM [falling, partial curve]"
CCOc1ncccc1C(=O)OCC(=O)c1cccc(Br)c1,106,"29.1 µM [rising, single point]","18.4 µM [rising, single point]"
COc1cc(S(=O)(=O)Nc2cccc(C)c2)ccc1NC(=O)c1ccncc1,-2.1,"20.6 µM [falling, single point]",–
Cc1ccc2cc(CN(c3cccc(C)c3C)S(=O)(=O)c3ccccc3)c(=O)[nH]c2c1,-7.03,–,–
CCCNC(=O)C1CCN(c2nc(C)cc(C)n2)CC1,15.7,–,–
C=CCNC(=O)CN1CCC(c2nc3cc(C)c(C)cc3[nH]2)CC1,6.94,–,–
Cc1nnc(SCc2ccccn2)n(N)c1=O,-14.6,"3.26 µM [falling, single point]",–
O=C(CN1C(=O)c2ccccc2C1=O)Nc1cccc(O)c1,0.587,–,–
NS(=O)(=O)c1ccc(NC(=O)COC(=O)CSCc2ccc(F)cc2)cc1,21.7,–,"2.91 µM [falling, single point]"
O=C(c1cc2ncc(Br)cn2n1)N1CCN(C(=O)c2ccco2)CC1,191,"1.84 µM [rising, partial curve]","10.3 µM [rising, partial curve]"
N#C/C(=C\c1ccc(N2CCOCC2)o1)C(=O)NCCc1ccccc1,-28.6,"18.4 µM [falling, partial curve]",–
Cc1ccccc1CN1CCN(C(=O)c2ccc(F)cc2)CC1,9.34,–,–
CCOc1ccc(NCC(=O)N/N=C/C=C/c2ccccc2)cc1,0.868,"4.11 µM [rising, partial curve, poor fit]",–
CC(=O)C1C(c2cccc(F)c2)c2c(n[nH]c2C)CC1(C)O (stereo unspecified),-6.78,"29.1 µM [falling, single point]",–

# 2 entries drawn at random from the list so far:
Structure (SMILES),cell number change [%],AC50 [1],AC50 [2]
Cc1nnc(SCc2ccccn2)n(N)c1=O,-14.6,"3.26 µM [falling, single point]",–
O=C(CN1C(=O)c2ccccc2C1=O)Nc1cccc(O)c1,0.587,–,–

# (continued)

Structure (SMILES),cell number change [%],AC50 [1],AC50 [2]
COc1cc2c(cc1OC)CN(C(=O)COc1ccc(C#N)cc1)CC2,–,"6.51 µM [rising, single point]",–
CN(Cc1cnn(-c2ccccc2)c1)C(=O)C1CCC(=O)N(C2CC2)C1 (stereo unspecified),21.1,–,–
O=C(COc1ccc2c(c1)OCO2)Nc1cccc(F)c1,-20,"29.1 µM [rising, single point]",–
Cc1nn(Cc2ccccc2)c(N)c1C#N,-9.1,–,–
CN(C)CCNC(=O)/C(=C/c1ccc(-c2cccc([N+](=O)[O-])c2)o1)NC(=O)c1ccccc1,19.4,"2.59 µM [rising, partial curve, poor fit]",–
O=C(CN1C(=O)c2ccccc2S1(=O)=O)N1CCc2ccccc2C1,0.255,"29.1 µM [rising, single point]",–
CCOC(=O)C1=C(C)N=C2SC(C)C(=O)N2C1c1ccc(C(=O)OC)cc1 (stereo unspecified),-29.6,"0.103 µM [falling, full curve]",–
Cc1oc2c(C)c3oc(=O)c(CC(=O)N[C@@H](CCCNC(N)=O)C(=O)O)c(C)c3cc2c1C,–,"18.4 µM [rising, partial curve, poor fit]",–
O=S(=O)(Nc1cccc(-c2nc3cccnc3s2)c1)c1cccs1,17.1,"0.058 µM [rising, full curve, poor fit]",–
NNc1nc2ccc(Cl)cc2s1,-4.83,"16.4 µM [falling, single point]",–
C/C(Cn1nnc([N+](=O)[O-])n1)=N\NC(=O)c1ccc(Cl)c(Cl)c1,-16.6,"0.731 µM [rising, single point]",–
COc1cccc(NC(=O)CSc2nc3c(sc4ccccc43)c(=O)n2CCCN2CCCC2)c1,64.5,"29.1 µM [falling, single point]","29.1 µM [rising, single point]"
COc1ccc(OC)c(NC(=O)Nc2ccc(Cl)cc2)c1,-99,"25.9 µM [falling, partial curve]","16.4 µM [falling, partial curve, poor fit]"
Cc1cc(C)n(-c2ccc(C(=O)Oc3ccc4c(c3)OCO4)cc2)n1,176,–,"20.6 µM [rising, single point]"
COc1ccc(NC(=O)N2c3ccc(OC)cc3C(C)=CC2(C)C)cc1,-54.2,"23.1 µM [falling, single point]","20.6 µM [falling, single point]"
CC(Oc1ccccc1F)c1nnc(SCC(=O)NCc2ccc3c(c2)OCO3)o1 (stereo unspecified),21.4,"0.103 µM [rising, partial curve, poor fit]",–
